Test results published in PubChem BioAssay AID488837 (National Center for Advancing Translational Sciences (NCATS), 2010).
The whole screen tested about 330,000 compounds, of which about 20 (0.006%) were called active. This list was built around the results that the source calls inconclusive (neither active nor inactive); the mix of calls is not that of the screen. The call rests on the fitted dose curve; in most records, active means well fitted inhibition curve with a large enough effect; inconclusive means small, poorly fitted or top-dose-only effect, or effect the other way; inactive means flat fitted curve, though single readings scatter. Potencies beside an inconclusive call are fits to weak or partial responses and may not hold up.

Sequences of proteins named here, by UniProt entry; tags and fusion partners are left off. A change or cut given only in a name is not applied to a line headed by its entry.
UniProt O00167: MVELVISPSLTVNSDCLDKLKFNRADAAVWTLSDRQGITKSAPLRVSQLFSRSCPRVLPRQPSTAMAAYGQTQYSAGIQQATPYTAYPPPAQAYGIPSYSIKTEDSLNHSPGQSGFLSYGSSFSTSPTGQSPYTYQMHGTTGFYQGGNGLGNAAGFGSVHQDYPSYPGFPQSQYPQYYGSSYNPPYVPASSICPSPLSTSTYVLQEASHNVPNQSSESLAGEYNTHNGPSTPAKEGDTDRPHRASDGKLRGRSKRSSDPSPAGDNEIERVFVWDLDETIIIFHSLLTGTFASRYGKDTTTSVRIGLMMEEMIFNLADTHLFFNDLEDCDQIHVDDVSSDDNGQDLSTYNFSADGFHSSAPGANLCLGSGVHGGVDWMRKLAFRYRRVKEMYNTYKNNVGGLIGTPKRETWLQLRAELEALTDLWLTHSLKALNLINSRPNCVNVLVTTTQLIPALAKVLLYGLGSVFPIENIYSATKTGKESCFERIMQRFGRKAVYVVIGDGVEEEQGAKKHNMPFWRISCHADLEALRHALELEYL

target: Protein phosphatase EYA2 (Homo sapiens) (UniProt O00167); assay: qHTS Assay for Inhibitors of the Phosphatase Activity of Eya2; settings: recombinant Eya2, OMFP fluorescence dephosphorylation (OMFP is methylfluorescein phosphate)
Procedure, shortened: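 Eya2 protein (added as 0.2 uM solution) was preincubated with compound for 10 min at ambient temperature in 50 mM HEPES pH 7.5, 50 mM NaCl, 5 uM MgCl2, 0.05% BSA, 1 mM DTT. OMFP (added at 50 uM) then reacted 10 min; fluorescence read at 485/525 nm.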
Potency means the concentration at half of the fitted maximal effect.

| Structure (SMILES) | Potency |
| --- | --- |
| C=CCOc1ccc(/C=C2\N=C(C)OC2=O)cc1OC | inactive |
| Cc1oc(=O)c(NC(=O)c2ccccc2)cc1C(C)O (stereo unspecified) | inconclusive: 1260 µM [inhibitor, partial curve, poor fit] |
| O=C(O)c1cc(NC(=O)C2CCCO2)cc(C(=O)O)c1 (stereo unspecified) | inconclusive: 20 µM [inhibitor, single point] |
| O=C(COc1ccc2ccccc2c1)NCC1CCCO1 (stereo unspecified) | inconclusive: 25.1 µM [inhibitor, single point] |
| O=c1c2cc([N+](=O)[O-])ccc2nc(CN2CCN(c3ccccn3)CC2)n1-c1ccccc1F | inconclusive: 63.1 µM [inhibitor, partial curve, poor fit] |
| COC(=O)c1c(NC(=O)Cc2ccccc2)sc2c1CCN(C(C)C)C2 | inconclusive: 20 µM [inhibitor, single point] |
| CCN(CC)C1=CC2=CC(=C(C#N)C#N)CCC2CC1 (stereo unspecified) | inconclusive: 5.01 µM [activator, partial curve] |
| Cc1ccn(CC(=O)N/N=C/c2cc([N+](=O)[O-])ccc2O)n1 | inactive |
| COc1ccc(Nc2cc(C(=O)NC3CCCC3)c3ccccc3n2)c(OC)c1 | inconclusive: 89.1 µM [inhibitor, single point] |
| O=C(CNS(=O)(=O)c1ccc(Cl)cc1)NC1CCCCC1 | inactive |
| CC(CNC(=O)c1ccc2c(c1)OCO2)c1ccc([N+](=O)[O-])cc1 (stereo unspecified) | inconclusive: 100 µM [inhibitor, single point] |
| Oc1ccc(Nc2ccnc3cc(Cl)ccc23)cc1 | inconclusive: 100 µM [inhibitor, single point] |
| Cc1ccc(C(=O)NCc2ccc3c(c2)OCO3)c(C)c1 | inconclusive: 79.4 µM [inhibitor, single point] |
| COc1ccc(-c2noc(CSc3nc(N)c(-c4ccccc4)c(=O)[nH]3)n2)cc1OC | inactive |
| COC(=O)c1ccc2[nH]c(C)c(CN3CCCC3)c(=O)c2c1 | inactive |
| CCOC(=O)COc1ccc2c(C#N)c3ccccn3c2c1 | inactive |
| COc1ccc(NC(=O)c2cc(-c3ccco3)nc3ccccc23)cc1S(=O)(=O)N1CCOCC1 | inconclusive: 112 µM [inhibitor, partial curve] |
| Cc1nc(NCCc2ccc(O)cc2)c2nnn(Cc3ccccc3)c2n1 | inactive |
| FC(F)(F)Oc1ccc(NC(=S)Nc2ccccc2N2CCOCC2)cc1 | inconclusive: 141 µM [inhibitor, partial curve, poor fit] |
| Cc1nc(C)c(C(=O)Nc2cccc(C)c2C)s1 | inconclusive: 100 µM [inhibitor, single point] |
| CC(C)(C)c1ccc(OCCCn2ccnc2)cc1 | inconclusive: 112 µM [inhibitor, single point] |
| Cc1ccc(Cl)cc1NC(=O)Nc1cccs1 | inconclusive: 112 µM [inhibitor, single point] |
| COc1ccccc1N1CC(C(=O)OC(C)C(=O)N2CCCc3ccccc32)CC1=O (stereo unspecified) | inactive |

| Structure (SMILES) | Potency |
| --- | --- |
| Cc1ccc(S(=O)(=O)CCC(=O)OCc2cc(C)ccc2C)cc1 | inconclusive: 12.6 µM [inhibitor, single point] |
| CCNc1nc(NCC)n2c(SCC(=O)Nc3ccc(OC)c(OC)c3)nnc2n1 | inactive |
| Cc1ccc(C(CC(=O)NCc2ccco2)c2ccc(OC(C)C)cc2)cc1 (stereo unspecified) | inconclusive: 282 µM [inhibitor, partial curve] |
| Cc1nnn(C23C[C@@H]4C[C@@H](CC(C(=O)N5CCN(c6ccccc6)CC5)(C4)C2)C3)n1 | inactive |
| Cc1[nH]n(-c2ccc(Br)cc2)c(=O)c1/C=N/NC(=O)c1ccccc1 | inactive |
| Cc1cc2n(n1)C(c1ccccc1Cl)Nc1ccccc1-2 (stereo unspecified) | inactive |
| CCN1C(=O)Cc2cc(S(=O)(=O)NCCc3ccccc3)ccc21 | inconclusive: 112 µM [inhibitor, single point] |
| O=C(CNS(=O)(=O)/C=C/c1ccccc1)OCC(=O)N1CCC(Cc2ccccc2)CC1 | inconclusive: 17.8 µM [inhibitor, single point] |
| COc1cc(/C=N/NS(=O)(=O)c2ccc(C(C)(C)C)cc2)cc([N+](=O)[O-])c1O | inconclusive: 22.4 µM [inhibitor, single point] |
| O=C(NNc1ccc(F)cc1)c1c(F)cccc1Cl | inconclusive: 89.1 µM [inhibitor, single point] |
| O=C(CSc1nnc(SCc2ccc(F)cc2)s1)Nc1ccc(C(=O)O)cc1 | inactive |
| COC(=O)c1cc(OC)cc(O)c1C(=O)c1c(O)cc(C)cc1O | inconclusive: 20 µM [inhibitor, single point] |
| Cc1cccc(NC(=O)C2CCCN(S(=O)(=O)c3cccs3)C2)c1C (stereo unspecified) | inconclusive: 20 µM [inhibitor, single point] |
| O=C(NNC(=O)c1ccncc1)c1ccccc1 | inconclusive: 89.1 µM [inhibitor, single point] |
| CCC(C(=O)OC)n1cnc2c(nnn2-c2ccc(F)cc2)c1=O (stereo unspecified) | inconclusive: 25.1 µM [inhibitor, single point] |
| Cc1cc2cc(C)c3nnc(SCC(=O)NCc4ccc5c(c4)OCO5)n3c2cc1C | inconclusive: 22.4 µM [inhibitor, single point] |
| Cc1ccc(-n2nc3c(=O)n(CC(=O)NCCC4=CCCCC4)nc(C)c3c2C)cc1 | inactive |
| COc1ccc(CC(=O)NNC(=O)c2ccoc2C)cc1OC | inconclusive: 25.1 µM [inhibitor, single point] |
| O=C(Nc1ccncc1)c1cn(-c2ccccc2)nc1-c1cccs1 | inactive |
| N#Cc1c(C(F)(F)F)cc(C2CC2)[nH]c1=O | inconclusive: 14.1 µM [inhibitor, single point] |
| COc1c(C(CC(C)C)OC(C)=O)ccc2c1C(=O)OCc1cc(C)cc(O)c1O2 (stereo unspecified) | inconclusive: 31.6 µM [inhibitor, partial curve] |
| Cn1c(SCc2nc(-c3ccccc3)no2)nnc1-c1ccco1 | inconclusive: 25.1 µM [inhibitor, single point] |
| CC(CCc1ccccc1)NC(=O)CNc1cccc([N+](=O)[O-])c1 (stereo unspecified) | inconclusive: 316 µM [inhibitor, partial curve, poor fit] |

Some of these compounds in order of molecular weight, low to high.

| Structure (SMILES) | Potency |
| --- | --- |
| O=C(NNC(=O)c1ccncc1)c1ccccc1 | inconclusive: 89.1 µM [inhibitor, single point] |
| Cn1c(SCc2nc(-c3ccccc3)no2)nnc1-c1ccco1 | inconclusive: 25.1 µM [inhibitor, single point] |
| Cc1cc2cc(C)c3nnc(SCC(=O)NCc4ccc5c(c4)OCO5)n3c2cc1C | inconclusive: 22.4 µM [inhibitor, single point] |
